These are yes or no findings as the source states them, for the method shown. In cells and extracts the contact can be indirect. Some results given as binding are weak or reduced against the parent protein; the word gives no strength.
Experiments:
[1] = biological target: α-actinin-4 (human (endogenous in MDA-MB-231 and HT-1080)) (UniProt O43707); test: co-IP
eGFP-ACTN4 = eGFP-ACTN4 (UniProt O43707); test: proximity ligation
[2] = biological target: α-actinin-4 (human (endogenous in MDA-MB-231 and HT-1080)) (UniProt O43707); test: proximity ligation

The chains behind the UniProt entries cited, without tags or fusion partners.
UniProt O43707: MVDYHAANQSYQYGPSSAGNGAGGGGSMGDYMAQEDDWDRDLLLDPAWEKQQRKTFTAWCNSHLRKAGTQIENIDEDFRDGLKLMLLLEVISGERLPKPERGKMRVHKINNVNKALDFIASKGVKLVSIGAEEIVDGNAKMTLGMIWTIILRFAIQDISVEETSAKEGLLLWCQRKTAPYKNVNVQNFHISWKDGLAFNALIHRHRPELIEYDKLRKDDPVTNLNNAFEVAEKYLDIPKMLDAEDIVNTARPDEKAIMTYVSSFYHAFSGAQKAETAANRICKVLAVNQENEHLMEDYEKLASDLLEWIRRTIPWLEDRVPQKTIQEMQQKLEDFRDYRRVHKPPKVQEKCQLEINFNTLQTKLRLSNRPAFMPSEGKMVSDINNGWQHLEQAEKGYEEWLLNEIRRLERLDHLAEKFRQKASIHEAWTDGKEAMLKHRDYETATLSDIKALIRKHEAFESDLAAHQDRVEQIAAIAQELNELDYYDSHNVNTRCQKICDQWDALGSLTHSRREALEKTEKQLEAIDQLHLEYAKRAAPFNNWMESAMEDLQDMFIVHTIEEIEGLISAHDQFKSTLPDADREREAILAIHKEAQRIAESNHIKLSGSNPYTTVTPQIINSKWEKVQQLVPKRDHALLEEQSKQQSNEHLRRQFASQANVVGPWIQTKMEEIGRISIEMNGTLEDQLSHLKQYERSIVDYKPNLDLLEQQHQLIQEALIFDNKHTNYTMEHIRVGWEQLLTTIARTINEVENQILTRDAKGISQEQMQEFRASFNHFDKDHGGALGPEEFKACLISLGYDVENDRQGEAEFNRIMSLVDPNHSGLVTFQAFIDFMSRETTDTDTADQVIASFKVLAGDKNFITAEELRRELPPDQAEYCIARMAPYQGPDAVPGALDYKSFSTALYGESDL
UniProt P35579: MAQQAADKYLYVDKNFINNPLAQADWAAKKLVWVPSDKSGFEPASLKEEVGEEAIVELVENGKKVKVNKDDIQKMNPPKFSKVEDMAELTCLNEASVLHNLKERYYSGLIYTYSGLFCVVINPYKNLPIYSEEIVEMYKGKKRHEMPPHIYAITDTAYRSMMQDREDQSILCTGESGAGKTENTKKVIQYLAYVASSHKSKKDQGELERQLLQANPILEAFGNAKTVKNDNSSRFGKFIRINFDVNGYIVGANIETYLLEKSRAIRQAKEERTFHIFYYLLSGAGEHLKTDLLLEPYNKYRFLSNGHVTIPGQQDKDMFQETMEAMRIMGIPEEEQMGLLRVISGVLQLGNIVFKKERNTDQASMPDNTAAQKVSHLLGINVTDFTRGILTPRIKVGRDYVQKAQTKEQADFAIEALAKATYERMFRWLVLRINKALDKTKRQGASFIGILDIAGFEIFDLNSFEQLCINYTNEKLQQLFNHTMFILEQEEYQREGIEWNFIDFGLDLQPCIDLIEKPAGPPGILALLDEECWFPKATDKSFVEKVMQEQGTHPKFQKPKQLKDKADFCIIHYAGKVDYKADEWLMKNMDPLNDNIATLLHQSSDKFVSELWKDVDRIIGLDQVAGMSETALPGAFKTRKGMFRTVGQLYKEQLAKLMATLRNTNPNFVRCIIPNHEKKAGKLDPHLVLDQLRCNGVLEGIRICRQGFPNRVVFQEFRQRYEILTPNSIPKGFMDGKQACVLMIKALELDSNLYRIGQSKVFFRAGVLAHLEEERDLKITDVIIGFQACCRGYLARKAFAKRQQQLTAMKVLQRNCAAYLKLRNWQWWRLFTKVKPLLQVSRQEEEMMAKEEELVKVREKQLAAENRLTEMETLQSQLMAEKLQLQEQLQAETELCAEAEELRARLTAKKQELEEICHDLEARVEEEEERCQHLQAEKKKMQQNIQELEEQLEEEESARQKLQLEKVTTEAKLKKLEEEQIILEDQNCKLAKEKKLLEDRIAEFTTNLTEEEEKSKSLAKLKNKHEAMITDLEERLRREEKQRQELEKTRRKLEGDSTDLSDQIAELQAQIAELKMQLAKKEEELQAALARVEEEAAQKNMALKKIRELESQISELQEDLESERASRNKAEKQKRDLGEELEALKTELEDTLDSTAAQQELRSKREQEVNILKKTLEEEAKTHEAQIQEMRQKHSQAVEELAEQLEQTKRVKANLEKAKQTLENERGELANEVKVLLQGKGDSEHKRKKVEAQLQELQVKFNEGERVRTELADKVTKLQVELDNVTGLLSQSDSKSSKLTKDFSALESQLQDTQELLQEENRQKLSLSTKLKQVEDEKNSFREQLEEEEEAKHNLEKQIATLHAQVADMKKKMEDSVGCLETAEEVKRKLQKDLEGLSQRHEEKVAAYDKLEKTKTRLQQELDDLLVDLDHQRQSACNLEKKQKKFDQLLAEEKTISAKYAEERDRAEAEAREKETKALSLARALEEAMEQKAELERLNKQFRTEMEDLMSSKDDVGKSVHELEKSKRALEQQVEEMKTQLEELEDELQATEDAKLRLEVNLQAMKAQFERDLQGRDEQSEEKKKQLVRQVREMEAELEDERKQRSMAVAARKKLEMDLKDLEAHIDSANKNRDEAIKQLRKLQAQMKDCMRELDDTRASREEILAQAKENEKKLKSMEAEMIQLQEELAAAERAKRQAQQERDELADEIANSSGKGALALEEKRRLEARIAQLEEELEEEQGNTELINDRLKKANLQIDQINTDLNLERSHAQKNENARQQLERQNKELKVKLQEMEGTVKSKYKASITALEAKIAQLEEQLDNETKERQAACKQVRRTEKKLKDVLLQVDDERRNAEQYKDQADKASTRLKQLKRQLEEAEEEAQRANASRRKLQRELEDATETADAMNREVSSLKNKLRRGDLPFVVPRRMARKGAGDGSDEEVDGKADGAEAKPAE

Measured: binding

non-muscle myosin IIA (from UniProt P35579 1-1960)
binds: all assays above
